Results: patent publication US5236899A (Merck & Co., Inc., priority 1991, dated 1993)
HELM strings list residues between dots; [ac] is acetyl, [am] amide, other brackets name non-standard units.

Experiment: general procedure: solution-phase peptide synthesis; BOP-Cl/triethylamine; DCC/N-hydroxybenzotriazole; BOP/N-methylmorpholine; 1-prop

**Q.** Which step yield (late stage modification step) does the source give for “Boc-D-Ala-MeLeu-MeLeu-MeVal-MeBmt-Abu-Sar-MeLeu-Val-MeAla-AlaOH” here?
**A.** 77.5%

**Q.** With “Boc-L-2-Aminobutyryl-Sarcosyl-N-Methyl-L-Leucyl-L-Valyl-N-Methyl-L-Alanyl- L-Alanine Benzyl Ester” as the substance, how does the step yield (coupling step) read?
**A.** 51% of theory

**Q.** With “Boc-N-Methyl-L-Leucyl-L-Valyl-N-Methyl-L-Alanyl-L-Alanine Benzyl Ester” as the substance, how does the step yield (coupling step) read?
**A.** 75% of theory

**Q.** Which step yield (coupling step) does the source give for “N,O-isopropylidene-MeBmt-Abu-Sar-MeLeu-Val-MeAla-AlaOBzl” here?
**A.** 58%

**Q.** Which cyclisation yield (cyclisation step, on linear precursor) does the source give for “PEPTIDE1{[MeBmt].[Abu].[Sar].[MeLeu].V.[MeAla].A.[dA].[MeLeu].[MeLeu].[MeVal]}$PEPTIDE1,PEPTIDE1,1:R1-11:R2$$$V2.0” here?
**A.** 63%
